{
  "sequences": {"note": "Amino acid sequences for entries named in this document (tags omitted). Residues count along the entry.", "UniProt P11276, residues 33-2477": "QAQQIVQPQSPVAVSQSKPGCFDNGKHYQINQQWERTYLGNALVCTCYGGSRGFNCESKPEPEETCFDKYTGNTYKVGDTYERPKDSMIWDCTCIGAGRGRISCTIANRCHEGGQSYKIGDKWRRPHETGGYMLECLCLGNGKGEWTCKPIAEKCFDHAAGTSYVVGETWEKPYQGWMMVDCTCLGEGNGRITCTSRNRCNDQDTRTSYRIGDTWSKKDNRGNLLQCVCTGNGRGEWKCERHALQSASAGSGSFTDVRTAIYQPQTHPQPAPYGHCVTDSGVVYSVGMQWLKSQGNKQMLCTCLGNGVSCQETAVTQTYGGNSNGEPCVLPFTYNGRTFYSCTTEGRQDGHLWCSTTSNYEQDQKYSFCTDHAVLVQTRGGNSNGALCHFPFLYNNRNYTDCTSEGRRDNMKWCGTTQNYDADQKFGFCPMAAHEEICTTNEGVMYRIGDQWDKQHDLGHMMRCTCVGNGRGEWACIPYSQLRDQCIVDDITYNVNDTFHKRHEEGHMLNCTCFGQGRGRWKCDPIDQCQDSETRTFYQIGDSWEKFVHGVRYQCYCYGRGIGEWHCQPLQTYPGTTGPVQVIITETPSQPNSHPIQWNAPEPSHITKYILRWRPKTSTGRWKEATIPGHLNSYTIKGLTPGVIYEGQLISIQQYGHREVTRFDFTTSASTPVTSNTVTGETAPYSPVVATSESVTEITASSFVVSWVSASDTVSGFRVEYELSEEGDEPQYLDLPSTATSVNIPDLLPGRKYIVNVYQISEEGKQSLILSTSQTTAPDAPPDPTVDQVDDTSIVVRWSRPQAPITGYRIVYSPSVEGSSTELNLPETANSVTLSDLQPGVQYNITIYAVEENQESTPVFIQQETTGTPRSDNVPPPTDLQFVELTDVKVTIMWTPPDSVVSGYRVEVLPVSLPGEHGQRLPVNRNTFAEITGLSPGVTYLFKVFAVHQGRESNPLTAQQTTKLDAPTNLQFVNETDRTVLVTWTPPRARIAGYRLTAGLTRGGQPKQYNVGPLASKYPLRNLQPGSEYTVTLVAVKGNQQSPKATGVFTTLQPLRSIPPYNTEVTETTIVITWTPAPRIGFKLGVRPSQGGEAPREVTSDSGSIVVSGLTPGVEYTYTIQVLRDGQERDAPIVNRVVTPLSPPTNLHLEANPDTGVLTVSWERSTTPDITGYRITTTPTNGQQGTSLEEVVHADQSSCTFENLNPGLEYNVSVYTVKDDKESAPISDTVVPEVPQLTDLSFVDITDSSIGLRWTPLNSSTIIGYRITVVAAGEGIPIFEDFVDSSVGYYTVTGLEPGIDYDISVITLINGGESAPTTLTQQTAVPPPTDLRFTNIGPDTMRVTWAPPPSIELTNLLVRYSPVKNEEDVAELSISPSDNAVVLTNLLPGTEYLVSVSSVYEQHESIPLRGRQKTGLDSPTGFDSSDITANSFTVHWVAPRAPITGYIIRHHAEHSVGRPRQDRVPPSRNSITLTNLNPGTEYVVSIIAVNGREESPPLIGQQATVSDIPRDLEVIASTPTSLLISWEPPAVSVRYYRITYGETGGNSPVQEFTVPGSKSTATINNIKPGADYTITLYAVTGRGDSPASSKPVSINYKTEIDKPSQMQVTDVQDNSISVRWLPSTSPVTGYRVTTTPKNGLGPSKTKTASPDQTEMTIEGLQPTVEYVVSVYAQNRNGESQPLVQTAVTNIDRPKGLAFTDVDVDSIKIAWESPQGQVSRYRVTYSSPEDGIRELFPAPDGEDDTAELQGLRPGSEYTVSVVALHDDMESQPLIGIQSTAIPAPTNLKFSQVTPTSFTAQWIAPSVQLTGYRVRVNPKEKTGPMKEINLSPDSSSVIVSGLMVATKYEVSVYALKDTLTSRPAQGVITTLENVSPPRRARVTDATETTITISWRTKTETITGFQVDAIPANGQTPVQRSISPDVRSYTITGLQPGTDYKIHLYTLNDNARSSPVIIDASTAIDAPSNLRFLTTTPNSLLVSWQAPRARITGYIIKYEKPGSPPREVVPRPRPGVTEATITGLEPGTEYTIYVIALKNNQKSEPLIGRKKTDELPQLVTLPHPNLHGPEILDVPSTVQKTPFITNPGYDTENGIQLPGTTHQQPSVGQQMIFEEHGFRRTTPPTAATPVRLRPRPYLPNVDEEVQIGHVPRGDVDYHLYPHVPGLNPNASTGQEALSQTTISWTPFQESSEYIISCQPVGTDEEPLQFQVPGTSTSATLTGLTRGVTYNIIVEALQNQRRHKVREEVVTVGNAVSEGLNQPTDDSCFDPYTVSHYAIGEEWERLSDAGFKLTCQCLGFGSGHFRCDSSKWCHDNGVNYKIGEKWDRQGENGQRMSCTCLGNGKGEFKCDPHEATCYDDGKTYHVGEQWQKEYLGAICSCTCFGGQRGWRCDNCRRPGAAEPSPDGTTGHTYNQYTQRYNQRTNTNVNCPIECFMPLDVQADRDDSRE"},
  "source": "paper PMC7913925",
  "about": "“Design and Evaluation of a Polypeptide That Mimics the Integrin Binding Site for EDA Fibronectin to Block Profibrotic Cell Activity” (International Journal of Molecular Sciences, 2021)",
  "key": {"[1]": {"biological_target": "extra domain A containing fibronectin (EDA-FN) (not stated (endogenous in fibroblasts; mouse NIH/3T3 and human HFL1 cells were cultured)) (UniProt P11276)", "assay": "co-IP; as a2; synthetic AF38Pep added to the cells for 48 h (with TGF-β1) before lysis and anti-ITGA4 immunoprecipitation; read-out is the EDA-FN coeluted with ITGA4; only the binder purified"}, "[2]": {"biological_target": "T1, antifibrotic 38-amino-acid polypeptide (AF38Pep) (disulfide bridge between the two cysteines)", "T1 construct": "two stretches derived from integrins β1 and α4, linked by a serine; Design contains the ISTTPAK motif of integrin β1/β7 and the KNENKI motif of integrin α4; source: synthetic peptide (ChinaPeptides)", "T1 peptide": "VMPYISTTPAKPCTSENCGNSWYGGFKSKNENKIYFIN", "assay": "condition: 300 µM FN-RGD injected into 15 µM AF38Pep; ITC; 15 µM AF38Pep in the chamber well, 300 µM small peptide in the injection needle; 25 °C; HEPES buffered saline (140 mM NaCl, 1.5 mM Na2HPO4, 50 mM HEPES; pH 7); MicroCal iTC200; one set of sites model with number of binding sites assumed to be 1; both purified"}, "[3]": {"biological_target": "T1, antifibrotic 38-amino-acid polypeptide …", "assay": "condition: 300 µM COL-RGD injected into 15 µM AF38Pep; ITC; 15 µM AF38Pep in the chamber well, 300 µM small peptide in the injection needle; 25 °C; HEPES buffered saline (140 mM NaCl, 1.5 mM Na2HPO4, 50 mM HEPES; pH 7); MicroCal iTC200; one set of sites model with number of binding sites assumed to be 1; both purified"}},
  "note": "No constants are given. Whether binding was seen depends on the method and setting. For part of these data: Binding seen in cells or lysates may run through a third protein. Some binding calls cover weakened binding; strength is not graded here.",
  "data": [
    {"binder": "VMPYISTTPAKPCTSENCGNSWYGGFKSKNENKIYFIN (designed binder, disulfide bridge between the two cysteines)", "note": "[antifibrotic 38-amino-acid polypeptide (AF38Pep)]", "values": [
      {"measurement": "binding", "setting": "[1]", "value": "binds"}
    ]},
    {"binder": "YAVTGRGDSPAS", "note": "[FN-RGD, a peptide derived from the integrin β1 and β3 subunit-binding RGD motif of fibronectin]", "values": [
      {"measurement": "binding", "setting": "[2]", "value": "no binding"}
    ]},
    {"binder": "GPKGDRGDAGPK", "note": "[COL-RGD, a peptide derived from the integrin β1 subunit-binding RGD motif of collagen I]", "values": [
      {"measurement": "binding", "setting": "[3]", "value": "no binding"}
    ]}
  ]
}
